How the values were obtained:
Format in all cases: in vitro ADME
human hepatocytes = test: Metabolite characterization in human hepatocytes; settings: human hepatocyte 1 h incubates of ETN101; ND:<1.2E+05 peak area
Experimental: (§1) We mixed 60 μL aliquots of 40 μM ETN101 in incubation medium and an equal volume of human, mouse, rat, dog, or monkey hepatocyte suspension in 96-well plates and incubated for 0 or 1 h in a CO2 incubator at 37 °C. The reactions were quenched by adding 120 µL of ice-cold acetonitrile to each well, and the cell suspension was sonicated for 5 min at 4 °C. Subsequently, centrifugation was carried out at 15,000× g for 10 min at 4 °C. Next, the supernatants were evaporated to dryness using a vacuum concentrator, and residues were re-dissolved in 70 μL of 30% acetonitrile. Each sample (5 μL aliquots) was analyzed using LC–HRMS system.
(§2) For metabolite characterization, a Vanquish HPLC system (Thermo Fisher Scientific, San José, CA, USA) coupled with a Q-Exactive Orbitrap mass spectrometer (Thermo Fisher Scientific Inc., Waltham, MA, USA) was used at Core Research Support Center for Natural Products and Medical Materials at Yeungnam University. […] The eluent from the column was directly injected into the mass spectrometer using a heated electrospray ionization (HESI) source in positive ionization mode. […] The spray voltage was 3.0 kV and the capillary temperature was 320 °C. […] The parallel reaction monitoring (PRM) mode was used to obtain the MS^2 spectra of putative metabolites detected at low peak intensities in the data-dependent MS^2 acquisition mode. […]

mouse hepatocytes = test: Metabolite characterization in mouse hepatocytes; settings: mouse hepatocyte 1 h incubates of ETN101; ND:<1.2E+05 peak area
Experimental: as §1, §2

rat hepatocytes = test: Metabolite characterization in rat hepatocytes; settings: rat hepatocyte 1 h incubates of ETN101; ND:<1.2E+05 peak area
Experimental: as §1, §2

dog hepatocytes = test: Metabolite characterization in dog hepatocytes; settings: dog hepatocyte 1 h incubates of ETN101; ND:<1.2E+05 peak area
Experimental: as §1, §2

monkey hepatocytes = test: Metabolite characterization in monkey hepatocytes; settings: monkey hepatocyte 1 h incubates of ETN101; ND:<1.2E+05 peak area
Experimental: as §1, §2

In the case of Nc1ccc(-c2nc3ccc(O)cc3s2)cc1 [M3, 6-OH-CJM-126], the “Relative peak area (%)” value (human hepatocytes) is reported as 0.1%, the “Relative peak area (%)” value (mouse hepatocytes) is reported as 0.2% and the “Relative peak area (%)” value (rat hepatocytes) is reported as under 0.1%. For the same compound, the “Relative peak area (%)” value (dog hepatocytes) was 0.1% and the “Relative peak area (%)” value (monkey hepatocytes) was 0.1%.
